Data as given in paper PMC11867973.
No constants are given. Whether binding was seen depends on the method and setting. Binding seen in cells or lysates may run through a third protein. Some binding calls cover weakened binding; strength is not graded here.

Chains of the proteins cited; added tags and fusions are not shown.
UniProt Q03135: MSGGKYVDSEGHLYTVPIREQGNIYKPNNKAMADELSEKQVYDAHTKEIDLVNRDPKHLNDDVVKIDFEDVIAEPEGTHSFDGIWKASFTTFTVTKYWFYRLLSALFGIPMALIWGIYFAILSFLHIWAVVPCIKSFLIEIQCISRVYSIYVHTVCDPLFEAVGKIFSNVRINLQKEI

Target: epithelial growth factor receptor (human (endogenous in JHOS2)) (UniProt P00533)
Experiment: co-IP; JHOS2 cell lysate (Triton X-100 lysis buffer: 50 mM Tris-HCl pH 7.5, 10% glycerol, 150 mM NaCl, 1 mM EDTA, 1% Triton X-100, 50 mM NaF) incubated overnight at 4 °C with anti-EGFR antibody, human IgG1 isotype control as control; protein A agarose beads 1 h at 4 °C; immunoblot for CAV1

- binding: binds
Substance: caveolin 1 (from UniProt Q03135 1-178)
